Some entries share one result that the patent states for a list of compounds. At least one structure is not confirmed: it was looked up by name or label, or the drawing left a doubt.
System: diamondback moth (Plutella xylostella)
Test: Test A: control of diamondback moth, foliar spray on pre-infested radish plant
Type: in vivo
Settings: sprayed at 250 ppm, 6 days at 25° C., very good to excellent control

Row | Compound | control efficacy: feeding damage (40% or less feeding damage and/or 100% mortality)
1 | O=c1c(-c2ccccc2OC(F)(F)F)c([O-])[n+](Cc2ccc(Cl)nc2)c2ccccn12 [Compound 421] | ≤ 40%
2 | O=c1c(-c2ccc(OCc3ccccc3)cc2)c([O-])[n+](CC(F)(F)F)c2ccccn12 [Compound 567] | ≤ 40%
3 | COc1ccccc1-c1c([O-])[n+](Cc2cnc(Cl)s2)c2c(F)cccn2c1=O [Compound 670] | ≤ 40%
4 | O=c1c(-c2ccccc2)c([O-])[n+](Cc2nnc(Cl)s2)c2ccccn12 [Compound 170] | ≤ 40%
5 | O=c1c(-c2cccc(OC(F)(F)F)c2)c([O-])[n+](CC(F)(F)C(F)(F)F)c2ccccn12 [Compound 33] | ≤ 40%
6 | O=c1c(-c2ccccc2C(F)(F)F)c([O-])[n+](CC(F)(F)F)c2ccccn12 [Compound 321] | ≤ 40%
7 | CCC[n+]1c([O-])c(-c2cccc(-c3ccccc3)c2)c(=O)n2ccccc21 [Compound 557] | ≤ 40%
8 | CCC[n+]1c([O-])c(-c2cccc(C(=O)OCC)c2)c(=O)n2ccccc21 [Compound 307] | ≤ 40%
9 | CC(c1cnn(C)c1)[n+]1c([O-])c(-c2cccc(OC(F)(F)F)c2)c(=O)n2ccccc21 (centres unmarked) [Compound 267] | ≤ 40%
10 | C=C(F)C[n+]1c([O-])c(-c2ccc(F)cc2)c(=O)n2ccccc21 [Compound 205] | ≤ 40%
11 | COc1cccc(-c2c([O-])[n+](Cc3ccc(Cl)nc3)c3sccn3c2=O)c1 [Compound 149] | ≤ 40%
12 | CCC[n+]1c([O-])c(-c2cccc(Br)c2)c(=O)n2ccccc21 [Compound 161] | ≤ 40%
13 | O=c1c(-c2cccc(OCc3ccccc3)c2)c([O-])[n+](CC(F)(F)F)c2ccccn12 [Compound 566] | ≤ 40%
14 | O=c1c(-c2ccccc2F)c([O-])[n+](Cc2cnc(Cl)s2)c2sccn12 [Compound 159] | ≤ 40%
15 | O=c1c(-c2cccc(S(F)(F)(F)(F)F)c2)c([O-])[n+](Cc2cnc(Cl)s2)c2ccccn12 [Compound 263] | ≤ 40%
16 | CCC[n+]1c([O-])c(-c2ccc(C(C)C)cc2)c(=O)n2ccccc21 [Compound 164] | ≤ 40%
17 | N#Cc1ccc(-c2c([O-])[n+](CCC(F)C(F)(F)Cl)c3ccccn3c2=O)cc1 (racemic) [Compound 351] | ≤ 40%
18 | COc1ccc(-c2cccc(-c3c([O-])[n+](Cc4ccc(Cl)nc4)c4ccccn4c3=O)c2)cn1 [Compound 529] | ≤ 40%
19 | O=c1c(-c2cc(C(F)(F)F)ccc2F)c([O-])[n+](Cc2cnc(Cl)s2)c2sccn12 [Compound 152] | ≤ 40%
20 | O=c1c(-c2ccccc2C(F)(F)F)c([O-])[n+](Cc2cnc(Cl)s2)c2ccccn12 [Compound 271] | ≤ 40%

Row | Compound | control efficacy: feeding damage (40% or less feeding damage and/or 100% mortality)
21 | O=c1c(-c2cccc(C(F)(F)F)c2F)c([O-])[n+](CC(F)(F)F)c2ccccn12 [Compound 350] | ≤ 40%
22 | CCC[n+]1c([O-])c(-c2cc(Cl)cc(Cl)c2)c(=O)n2ccsc21 [Compound 128] | ≤ 40%
23 | CCC[n+]1c([O-])c(-c2ccc(Cl)cc2)c(=O)n2ccccc21 [Compound 294] | ≤ 40%
24 | CCCC[n+]1c([O-])c(-c2ccccc2)c(=O)n2ccccc21 [Compound 290] | ≤ 40%
25 | Cc1n(C)c(=O)c(-c2ccccc2)c([O-])[n+]1Cc1ccc(Cl)nc1 [Compound 511] | ≤ 40%
26 | O=c1c(-c2cc(F)cc(F)c2)c([O-])[n+](CC(F)(F)F)c2ccccn12 [Compound 313] | ≤ 40%
27 | O=c1c(-c2ccc(F)cc2)c([O-])[n+](CC(F)C(F)(F)Cl)c2ccccn12 (centres unmarked) [Compound 227] | ≤ 40%
28 | O=c1c(-c2ccc(F)c(C(F)(F)F)c2)c([O-])[n+](CC(F)(F)F)c2ccccn12 [Compound 355] | ≤ 40%
29 | CCCCc1cccc(-c2c([O-])[n+](CC(F)(F)F)c3ccccn3c2=O)c1 [Compound 380] | ≤ 40%
30 | CCC[n+]1c([O-])c(-c2cccc(F)c2)c(=O)n2ccccc21 [Compound 284] | ≤ 40%
31 | CCCCc1cccc(-c2c([O-])[n+](CCC)c3ccccn3c2=O)c1 [Compound 339] | ≤ 40%
32 | O=c1c(-c2cccc([N+](=O)[O-])c2)c([O-])[n+](Cc2ccc(Cl)nc2)c2ccccn12 [Compound 441] | ≤ 40%
33 | CCC[n+]1c([O-])c(-c2ccc(OC)cc2)c(=O)n2ccccc21 [Compound 293] | ≤ 40%
34 | CCC[n+]1c([O-])c(-c2cccc(Oc3ccccc3)c2)c(=O)n2ccccc21 [Compound 563] | ≤ 40%
35 | CCC[n+]1c([O-])c(-c2cccc(Cl)c2)c(=O)n2ccccc21 [Compound 301] | ≤ 40%
36 | O=c1c(-c2ccc(F)cc2)c([O-])[n+](Cc2cccnc2)c2ccccn12 [Compound 412] | ≤ 40%
37 | CCCCc1cc(-c2c([O-])[n+](CC(F)(F)F)c3ccccn3c2=O)ccc1I [Compound 379] | ≤ 40%
38 | CCC[n+]1c([O-])c(-c2cc(C(F)(F)F)cc(C(F)(F)F)c2)c(=O)n2ccccc21 [Compound 287] | ≤ 40%
39 | CCC[n+]1c([O-])c(-c2ccc(C(=O)OCC)cc2)c(=O)n2ccccc21 [Compound 342] | ≤ 40%

System: potato leafhopper (Empoasca fabae)
Test: not given
Type: in vivo
Settings: sprayed at 50 ppm; Soleil bean plant; 6 days
Method: For evaluating control of potato leafhopper (Empoasca fabae) through contact and/or systemic means, the test unit consisted of a small open container with a 5-6-day-old Soleil bean plant (primary leaves emerged) inside. White sand was added to the top of the soil and one of the primary leaves was excised prior to application.
Test compounds were formulated and sprayed at 250 and 50 ppm, and the tests were replicated three times as described for Test A. After spraying, the test units were allowed to dry for 1 h before they were post-infested with 5 potato leafhoppers (18-21-day-old adults). A black, screened cap was placed on the top of the cylinder. The test units were held for 6 days in a growth chamber at 24° C. and 70% relative humidity. Each test unit was then visually assessed for insect mortality.

Row | Compound | mortality
40 | O=c1c(-c2ccc(F)cc2F)c([O-])[n+](CCCC(F)(F)Cl)c2ccccn12 [Compound 390] | ≥ 80%
41 | COc1ccccc1-c1c([O-])[n+](Cc2ccc(Cl)nc2)c2ccccn2c1=O [Compound 423] | ≥ 80%

Same assay, conditions: sprayed at 250 ppm; Soleil bean plant; 6 days

Row | Compound | mortality
42 | Cc1cnc(C[n+]2c([O-])c(-c3ccccc3)c(=O)n3ccccc32)cn1 [Compound 450] | ≥ 80%
43 | O=c1c(-c2ccc(F)cc2F)c([O-])[n+](CCCC(F)(F)Cl)c2ccccn12 [Compound 390] | ≥ 80%
44 | CSc1cccc(-c2c([O-])[n+](Cc3ccc(Cl)nc3)c3ccccn3c2=O)c1 [Compound 425] | ≥ 80%
45 | COc1ccccc1-c1c([O-])[n+](Cc2ccc(Cl)nc2)c2ccccn2c1=O [Compound 423] | ≥ 80%
46 | CCC[n+]1c([O-])c(-c2cc(C)ccc2C)c(=O)n2ccccc21 [Compound 349] | ≥ 80%
47 | N#Cc1cc(-c2c([O-])[n+](CCC(F)C(F)(F)Cl)c3ccccn3c2=O)ccc1F (centres unmarked) [Compound 410] | ≥ 80%

Reference: patent publication US8552007B2, “Mesoionic pesticides” (E.I. du Pont de Nemours and Company, priority 2008, dated 2013)
